Assay results published in PMC8191293.
These are yes or no findings as the source states them, for the method shown. In cells and extracts the contact can be indirect. Some entries that bind do so weakly or less than the wild type. Tags and fused reporters may be left off the sequences shown.

Protein sequences, listed by entry. Tags and fused reporters are not part of them.
UniProt P61619: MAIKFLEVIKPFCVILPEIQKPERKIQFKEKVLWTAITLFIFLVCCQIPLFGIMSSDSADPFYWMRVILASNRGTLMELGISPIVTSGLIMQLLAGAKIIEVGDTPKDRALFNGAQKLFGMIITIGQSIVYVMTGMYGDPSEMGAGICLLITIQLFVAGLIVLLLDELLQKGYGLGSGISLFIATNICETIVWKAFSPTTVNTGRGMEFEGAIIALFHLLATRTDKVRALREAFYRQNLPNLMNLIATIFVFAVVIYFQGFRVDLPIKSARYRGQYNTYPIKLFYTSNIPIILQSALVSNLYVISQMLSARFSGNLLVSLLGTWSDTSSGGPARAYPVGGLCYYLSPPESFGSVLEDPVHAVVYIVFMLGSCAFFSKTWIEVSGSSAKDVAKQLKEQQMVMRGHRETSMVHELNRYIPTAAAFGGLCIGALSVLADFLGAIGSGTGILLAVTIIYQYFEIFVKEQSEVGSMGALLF

Target: T1, L16P PMP22 (Charcot-Marie-Tooth disease variant), myc-tagged (human) (UniProt Q01453)
T1 sequence (chain, N-linked glycan at N41 (80 ± 2% of L16P PMP22 was glycosylated in HEK293 cells)): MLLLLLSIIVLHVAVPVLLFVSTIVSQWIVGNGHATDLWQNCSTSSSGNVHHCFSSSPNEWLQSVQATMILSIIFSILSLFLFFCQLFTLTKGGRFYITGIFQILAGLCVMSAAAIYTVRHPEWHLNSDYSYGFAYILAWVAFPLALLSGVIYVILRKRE
Assay: co-sedimentation; sucrose density fractionation of HEK293 cell lysates on a 0% to 60% step-wise gradient, 200,000g, 4 h, 4 °C; fractions analysed by Western blotting for PMP22 and Sec61α

binding: binds
Substance: Sec61α subunit of the translocon (from UniProt P61619 1-476)
